Measured values as given in the supplement of paper PMC4604168 (melanoma cell lines).
The list shows a part of the results. Repeats are few or missing, and single values can be far off.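 Imaging used 1,536-well plates; nuclei positive for cleaved PARP by antibody were divided by total DNA-stained nuclei to yield the apoptosis fraction. Doses for screening kept most cells viable, and cell lines differ markedly in resting and induced cleaved-PARP levels.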

system: MEL-HO; test: cleaved PARP positive nuclei fraction relative to DMSO control; melanoma cells; higher = more apoptosis; details: library dose: low library concentration; 72 h

Point of comparison: `CN(C)S(=O)(=O)c1ccc2c(c1)/C(=C/c1cc3c([nH]1)CCCC3)C(=O)N2` + NCC(=O)Nc1ccc(-n2nc(C(F)(F)F)cc2-c2ccc3c(ccc4ccccc43)c2)cc1 [OSU03012] (first compound 0.4 µM, partner dose 1 µM), “cleaved PARP positive nuclei fraction” value 76.5%. Against it:
- NCC(=O)Nc1ccc(-n2nc(C(F)(F)F)cc2-c2ccc3c(ccc4ccccc43)c2)cc1 + COc1cc2c(Oc3ccc4[nH]c(C)cc4c3F)ncnc2cc1OCCCN1CCCC1 [cediranib] (first compound 1 µM, partner dose 0.4 µM) — higher, 144%
- O=C(O)c1ccc(-c2c[nH]c3ncc(-c4ccccc4)cc23)cc1C1CCCC1 + CN(NC(=O)CC(=O)NN(C)C(=S)c1ccccc1)C(=S)c1ccccc1 [STA4783] (first compound 0.16 µM, partner dose 0.006 µM) — higher, 293%
- CN(NC(=O)CC(=O)NN(C)C(=S)c1ccccc1)C(=S)c1ccccc1 + COc1cc2c(Oc3ccc4[nH]c(C)cc4c3F)ncnc2cc1OCCCN1CCCC1 [cediranib] (first compound 0.006 µM, partner dose 0.4 µM) — higher, 377%
- NCC(=O)Nc1ccc(-n2nc(C(F)(F)F)cc2-c2ccc3c(ccc4ccccc43)c2)cc1 + CN(NC(=O)CC(=O)NN(C)C(=S)c1ccccc1)C(=S)c1ccccc1 [STA4783] (first compound 1 µM, partner dose 0.006 µM) — higher, 161%
- O=C(O)c1ccc(-c2c[nH]c3ncc(-c4ccccc4)cc23)cc1C1CCCC1 + COc1cc2c(Oc3ccc4[nH]c(C)cc4c3F)ncnc2cc1OCCCN1CCCC1 [cediranib] (first compound 0.16 µM, partner dose 0.4 µM) — higher, 99.4%
- CN(C)S(=O)(=O)c1ccc2c(c1)/C(=C/c1cc3c([nH]1)CCCC3)C(=O)N2 + CN(NC(=O)CC(=O)NN(C)C(=S)c1ccccc1)C(=S)c1ccccc1 [STA4783] (first compound 0.4 µM, partner dose 0.006 µM) — lower, 58.9%
- O=C(O)c1ccc(-c2c[nH]c3ncc(-c4ccccc4)cc23)cc1C1CCCC1 + NCC(=O)Nc1ccc(-n2nc(C(F)(F)F)cc2-c2ccc3c(ccc4ccccc43)c2)cc1 [OSU03012] (first compound 0.16 µM, partner dose 1 µM) — higher, 143%
- CN(C)S(=O)(=O)c1ccc2c(c1)/C(=C/c1cc3c([nH]1)CCCC3)C(=O)N2 + COc1cc2c(Oc3ccc4[nH]c(C)cc4c3F)ncnc2cc1OCCCN1CCCC1 [cediranib] (first compound 0.4 µM, partner dose 0.4 µM) — lower, 34.4%
- CN(C)S(=O)(=O)c1ccc2c(c1)/C(=C/c1cc3c([nH]1)CCCC3)C(=O)N2 + O=C(O)c1ccc(-c2c[nH]c3ncc(-c4ccccc4)cc23)cc1C1CCCC1 [GSK650394] (first compound 0.4 µM, partner dose 0.16 µM) — higher, 115%

system: MZ2-MEL; test: as above; details: library dose: low library concentration; 72 h

Point of comparison: `CN(C)S(=O)(=O)c1ccc2c(c1)/C(=C/c1cc3c([nH]1)CCCC3)C(=O)N2` + CN(NC(=O)CC(=O)NN(C)C(=S)c1ccccc1)C(=S)c1ccccc1 [STA4783] (first compound 0.4 µM, partner dose 0.006 µM), “cleaved PARP positive nuclei fraction” value 85.3%. Against it:
- CN(C)S(=O)(=O)c1ccc2c(c1)/C(=C/c1cc3c([nH]1)CCCC3)C(=O)N2 + NCC(=O)Nc1ccc(-n2nc(C(F)(F)F)cc2-c2ccc3c(ccc4ccccc43)c2)cc1 [OSU03012] (first compound 0.4 µM, partner dose 1 µM) — higher, 113%
- NCC(=O)Nc1ccc(-n2nc(C(F)(F)F)cc2-c2ccc3c(ccc4ccccc43)c2)cc1 + COc1cc2c(Oc3ccc4[nH]c(C)cc4c3F)ncnc2cc1OCCCN1CCCC1 [cediranib] (first compound 1 µM, partner dose 0.4 µM) — higher, 203%
- O=C(O)c1ccc(-c2c[nH]c3ncc(-c4ccccc4)cc23)cc1C1CCCC1 + CN(NC(=O)CC(=O)NN(C)C(=S)c1ccccc1)C(=S)c1ccccc1 [STA4783] (first compound 0.16 µM, partner dose 0.006 µM) — higher, 830%
- CN(NC(=O)CC(=O)NN(C)C(=S)c1ccccc1)C(=S)c1ccccc1 + COc1cc2c(Oc3ccc4[nH]c(C)cc4c3F)ncnc2cc1OCCCN1CCCC1 [cediranib] (first compound 0.006 µM, partner dose 0.4 µM) — higher, 107%
- NCC(=O)Nc1ccc(-n2nc(C(F)(F)F)cc2-c2ccc3c(ccc4ccccc43)c2)cc1 + CN(NC(=O)CC(=O)NN(C)C(=S)c1ccccc1)C(=S)c1ccccc1 [STA4783] (first compound 1 µM, partner dose 0.006 µM) — lower, 72.6%
- O=C(O)c1ccc(-c2c[nH]c3ncc(-c4ccccc4)cc23)cc1C1CCCC1 + COc1cc2c(Oc3ccc4[nH]c(C)cc4c3F)ncnc2cc1OCCCN1CCCC1 [cediranib] (first compound 0.16 µM, partner dose 0.4 µM) — lower, 65.1%
- O=C(O)c1ccc(-c2c[nH]c3ncc(-c4ccccc4)cc23)cc1C1CCCC1 + NCC(=O)Nc1ccc(-n2nc(C(F)(F)F)cc2-c2ccc3c(ccc4ccccc43)c2)cc1 [OSU03012] (first compound 0.16 µM, partner dose 1 µM) — lower, 65%
- CN(C)S(=O)(=O)c1ccc2c(c1)/C(=C/c1cc3c([nH]1)CCCC3)C(=O)N2 + COc1cc2c(Oc3ccc4[nH]c(C)cc4c3F)ncnc2cc1OCCCN1CCCC1 [cediranib] (first compound 0.4 µM, partner dose 0.4 µM) — higher, 123%
- CN(C)S(=O)(=O)c1ccc2c(c1)/C(=C/c1cc3c([nH]1)CCCC3)C(=O)N2 + O=C(O)c1ccc(-c2c[nH]c3ncc(-c4ccccc4)cc23)cc1C1CCCC1 [GSK650394] (first compound 0.4 µM, partner dose 0.16 µM) — higher, 102%
